Assay results taken from the supplement of paper PMC10849652.
The other results are listed elsewhere or left out.

The chains behind the UniProt entries cited, without tags or fusion partners. Where a name states a change or a piece, a line headed by the entry shows the natural chain unless it says otherwise.
UniProt Q7LBR1: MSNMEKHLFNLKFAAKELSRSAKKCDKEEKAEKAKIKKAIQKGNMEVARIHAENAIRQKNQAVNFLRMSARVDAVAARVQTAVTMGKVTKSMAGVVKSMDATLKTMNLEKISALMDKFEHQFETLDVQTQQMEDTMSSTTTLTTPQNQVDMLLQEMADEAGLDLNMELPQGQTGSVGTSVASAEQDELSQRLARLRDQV
UniProt P51798: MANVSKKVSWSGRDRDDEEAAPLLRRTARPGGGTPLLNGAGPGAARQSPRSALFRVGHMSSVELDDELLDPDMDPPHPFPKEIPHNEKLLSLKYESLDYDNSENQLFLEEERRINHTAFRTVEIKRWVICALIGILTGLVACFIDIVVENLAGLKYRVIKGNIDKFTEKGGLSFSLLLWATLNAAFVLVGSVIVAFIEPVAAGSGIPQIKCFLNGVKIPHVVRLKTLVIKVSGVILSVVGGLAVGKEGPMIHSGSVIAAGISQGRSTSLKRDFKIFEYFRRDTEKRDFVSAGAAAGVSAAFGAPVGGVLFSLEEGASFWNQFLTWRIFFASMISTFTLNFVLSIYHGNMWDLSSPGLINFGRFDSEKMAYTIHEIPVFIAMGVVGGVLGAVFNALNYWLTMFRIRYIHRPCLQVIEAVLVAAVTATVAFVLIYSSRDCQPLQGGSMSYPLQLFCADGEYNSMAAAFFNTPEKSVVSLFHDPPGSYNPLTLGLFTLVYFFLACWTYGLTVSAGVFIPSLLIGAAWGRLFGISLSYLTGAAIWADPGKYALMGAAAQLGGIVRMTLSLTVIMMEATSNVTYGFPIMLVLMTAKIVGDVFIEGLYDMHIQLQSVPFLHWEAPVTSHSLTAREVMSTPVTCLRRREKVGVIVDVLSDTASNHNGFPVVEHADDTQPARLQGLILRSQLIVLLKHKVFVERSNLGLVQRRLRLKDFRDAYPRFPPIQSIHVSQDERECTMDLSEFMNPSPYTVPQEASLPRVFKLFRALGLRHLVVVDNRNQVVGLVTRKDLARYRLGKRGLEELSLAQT
UniProt O14757: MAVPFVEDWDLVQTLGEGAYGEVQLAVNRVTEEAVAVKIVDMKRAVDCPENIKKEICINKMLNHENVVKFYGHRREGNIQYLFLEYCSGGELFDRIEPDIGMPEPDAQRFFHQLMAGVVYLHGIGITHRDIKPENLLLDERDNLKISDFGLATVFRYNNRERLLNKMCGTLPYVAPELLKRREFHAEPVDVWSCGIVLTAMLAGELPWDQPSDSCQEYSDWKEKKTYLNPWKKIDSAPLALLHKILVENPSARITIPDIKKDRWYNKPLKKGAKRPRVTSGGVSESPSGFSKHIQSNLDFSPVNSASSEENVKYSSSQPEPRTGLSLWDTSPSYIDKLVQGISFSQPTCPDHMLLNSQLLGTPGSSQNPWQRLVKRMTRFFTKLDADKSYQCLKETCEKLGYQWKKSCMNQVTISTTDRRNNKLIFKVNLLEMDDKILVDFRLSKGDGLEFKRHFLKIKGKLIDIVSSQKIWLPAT
UniProt Q6FI81: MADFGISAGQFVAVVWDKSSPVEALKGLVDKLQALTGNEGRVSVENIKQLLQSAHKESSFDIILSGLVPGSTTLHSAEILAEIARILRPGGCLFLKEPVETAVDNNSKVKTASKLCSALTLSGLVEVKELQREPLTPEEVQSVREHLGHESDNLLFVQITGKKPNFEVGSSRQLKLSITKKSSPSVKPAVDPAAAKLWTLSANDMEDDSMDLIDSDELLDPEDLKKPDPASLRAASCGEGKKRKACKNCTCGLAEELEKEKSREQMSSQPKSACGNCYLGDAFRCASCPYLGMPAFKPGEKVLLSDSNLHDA
UniProt P54105: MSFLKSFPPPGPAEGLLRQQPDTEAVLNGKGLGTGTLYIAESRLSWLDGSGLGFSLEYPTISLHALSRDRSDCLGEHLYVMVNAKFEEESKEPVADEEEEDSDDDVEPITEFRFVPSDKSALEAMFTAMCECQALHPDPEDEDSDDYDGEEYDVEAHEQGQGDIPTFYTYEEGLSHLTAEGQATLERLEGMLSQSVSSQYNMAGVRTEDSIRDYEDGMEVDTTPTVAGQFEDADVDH
UniProt P09497: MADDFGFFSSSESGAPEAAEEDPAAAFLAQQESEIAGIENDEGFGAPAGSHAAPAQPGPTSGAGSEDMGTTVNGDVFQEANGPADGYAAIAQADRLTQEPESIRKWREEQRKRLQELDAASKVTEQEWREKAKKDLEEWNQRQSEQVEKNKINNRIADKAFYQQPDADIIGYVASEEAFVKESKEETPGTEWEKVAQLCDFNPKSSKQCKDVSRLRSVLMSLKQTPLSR
UniProt Q9Y6H1: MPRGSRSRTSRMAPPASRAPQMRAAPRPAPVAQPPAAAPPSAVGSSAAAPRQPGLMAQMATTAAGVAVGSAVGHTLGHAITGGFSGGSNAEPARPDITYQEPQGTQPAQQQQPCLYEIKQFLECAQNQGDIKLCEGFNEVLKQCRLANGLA
UniProt Q96JM3: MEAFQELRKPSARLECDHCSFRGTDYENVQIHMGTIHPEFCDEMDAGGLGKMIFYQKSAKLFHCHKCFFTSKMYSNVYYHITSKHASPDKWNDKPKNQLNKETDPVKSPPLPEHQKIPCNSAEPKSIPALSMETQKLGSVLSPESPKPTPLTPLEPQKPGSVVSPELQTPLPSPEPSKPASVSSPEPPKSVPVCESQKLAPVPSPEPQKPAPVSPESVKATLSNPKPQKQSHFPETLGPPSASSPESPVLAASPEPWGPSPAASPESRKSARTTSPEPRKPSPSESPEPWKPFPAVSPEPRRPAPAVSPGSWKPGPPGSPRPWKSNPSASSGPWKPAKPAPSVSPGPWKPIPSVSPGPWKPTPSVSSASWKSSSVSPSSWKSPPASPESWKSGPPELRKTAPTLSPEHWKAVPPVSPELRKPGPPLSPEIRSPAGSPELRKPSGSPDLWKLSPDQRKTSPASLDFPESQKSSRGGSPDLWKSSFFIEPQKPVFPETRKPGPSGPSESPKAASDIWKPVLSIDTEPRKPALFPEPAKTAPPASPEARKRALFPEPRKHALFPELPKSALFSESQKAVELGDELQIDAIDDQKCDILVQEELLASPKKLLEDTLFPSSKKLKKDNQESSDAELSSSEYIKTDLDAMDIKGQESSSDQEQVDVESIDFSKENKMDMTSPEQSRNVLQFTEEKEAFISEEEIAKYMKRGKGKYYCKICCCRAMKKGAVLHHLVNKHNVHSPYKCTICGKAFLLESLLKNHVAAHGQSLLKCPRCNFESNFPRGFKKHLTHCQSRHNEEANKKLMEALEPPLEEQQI
UniProt Q14011: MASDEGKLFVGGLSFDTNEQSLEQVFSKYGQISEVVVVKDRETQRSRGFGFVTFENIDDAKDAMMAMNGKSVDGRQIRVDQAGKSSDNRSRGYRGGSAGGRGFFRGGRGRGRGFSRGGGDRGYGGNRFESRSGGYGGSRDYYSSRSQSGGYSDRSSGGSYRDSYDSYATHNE
UniProt Q7Z7K0: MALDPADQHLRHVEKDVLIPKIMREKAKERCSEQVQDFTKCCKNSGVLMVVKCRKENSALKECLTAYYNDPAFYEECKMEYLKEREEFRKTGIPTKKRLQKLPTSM
UniProt Q9H444: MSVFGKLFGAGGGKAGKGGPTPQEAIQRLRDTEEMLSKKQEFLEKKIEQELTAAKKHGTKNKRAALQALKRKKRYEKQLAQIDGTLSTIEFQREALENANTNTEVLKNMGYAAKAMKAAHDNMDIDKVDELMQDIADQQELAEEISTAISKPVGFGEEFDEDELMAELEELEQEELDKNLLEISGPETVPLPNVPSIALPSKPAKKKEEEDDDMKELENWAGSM
UniProt O14646: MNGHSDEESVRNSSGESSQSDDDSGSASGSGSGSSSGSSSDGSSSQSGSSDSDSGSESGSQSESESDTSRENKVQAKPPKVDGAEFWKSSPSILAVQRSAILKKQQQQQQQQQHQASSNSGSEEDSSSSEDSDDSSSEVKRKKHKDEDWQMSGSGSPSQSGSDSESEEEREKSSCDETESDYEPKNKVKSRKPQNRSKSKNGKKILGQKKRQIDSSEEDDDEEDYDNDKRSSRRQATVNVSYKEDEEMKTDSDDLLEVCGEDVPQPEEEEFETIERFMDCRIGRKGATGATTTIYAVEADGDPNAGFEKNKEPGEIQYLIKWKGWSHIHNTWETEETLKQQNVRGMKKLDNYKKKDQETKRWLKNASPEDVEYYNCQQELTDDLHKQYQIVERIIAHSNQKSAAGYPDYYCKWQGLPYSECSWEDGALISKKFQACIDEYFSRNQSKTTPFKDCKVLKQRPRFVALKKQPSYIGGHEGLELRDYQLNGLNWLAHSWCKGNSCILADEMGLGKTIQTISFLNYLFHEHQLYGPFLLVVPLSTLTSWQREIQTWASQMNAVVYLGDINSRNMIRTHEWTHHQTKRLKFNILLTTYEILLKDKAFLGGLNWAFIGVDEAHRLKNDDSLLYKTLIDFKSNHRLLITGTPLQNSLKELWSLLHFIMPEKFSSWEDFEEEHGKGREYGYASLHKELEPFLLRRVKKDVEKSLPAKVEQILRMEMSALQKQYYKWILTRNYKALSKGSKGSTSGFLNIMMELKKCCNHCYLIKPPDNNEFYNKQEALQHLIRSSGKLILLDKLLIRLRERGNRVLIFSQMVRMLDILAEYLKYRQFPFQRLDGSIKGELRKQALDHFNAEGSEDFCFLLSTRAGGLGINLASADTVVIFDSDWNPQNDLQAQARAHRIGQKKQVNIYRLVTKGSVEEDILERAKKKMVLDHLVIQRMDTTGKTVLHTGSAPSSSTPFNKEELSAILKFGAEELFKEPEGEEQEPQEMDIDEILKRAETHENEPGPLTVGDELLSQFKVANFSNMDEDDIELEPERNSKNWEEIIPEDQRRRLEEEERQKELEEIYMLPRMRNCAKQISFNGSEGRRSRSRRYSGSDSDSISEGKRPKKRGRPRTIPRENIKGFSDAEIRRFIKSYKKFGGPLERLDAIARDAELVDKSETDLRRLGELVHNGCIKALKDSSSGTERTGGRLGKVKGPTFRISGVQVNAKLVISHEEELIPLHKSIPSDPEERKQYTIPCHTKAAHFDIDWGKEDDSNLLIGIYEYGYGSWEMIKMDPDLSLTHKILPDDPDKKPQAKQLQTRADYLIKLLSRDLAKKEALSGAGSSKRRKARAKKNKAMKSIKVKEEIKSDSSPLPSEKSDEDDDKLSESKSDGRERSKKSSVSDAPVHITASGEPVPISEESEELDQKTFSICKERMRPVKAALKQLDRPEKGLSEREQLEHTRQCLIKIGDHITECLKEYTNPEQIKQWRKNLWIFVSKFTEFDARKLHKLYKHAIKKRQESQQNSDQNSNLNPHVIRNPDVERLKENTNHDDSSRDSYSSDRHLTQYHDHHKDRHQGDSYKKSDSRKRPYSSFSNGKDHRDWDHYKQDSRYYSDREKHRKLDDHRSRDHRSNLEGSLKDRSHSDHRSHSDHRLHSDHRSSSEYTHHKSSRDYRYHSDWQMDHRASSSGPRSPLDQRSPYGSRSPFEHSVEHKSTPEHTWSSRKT
UniProt Q96KA5: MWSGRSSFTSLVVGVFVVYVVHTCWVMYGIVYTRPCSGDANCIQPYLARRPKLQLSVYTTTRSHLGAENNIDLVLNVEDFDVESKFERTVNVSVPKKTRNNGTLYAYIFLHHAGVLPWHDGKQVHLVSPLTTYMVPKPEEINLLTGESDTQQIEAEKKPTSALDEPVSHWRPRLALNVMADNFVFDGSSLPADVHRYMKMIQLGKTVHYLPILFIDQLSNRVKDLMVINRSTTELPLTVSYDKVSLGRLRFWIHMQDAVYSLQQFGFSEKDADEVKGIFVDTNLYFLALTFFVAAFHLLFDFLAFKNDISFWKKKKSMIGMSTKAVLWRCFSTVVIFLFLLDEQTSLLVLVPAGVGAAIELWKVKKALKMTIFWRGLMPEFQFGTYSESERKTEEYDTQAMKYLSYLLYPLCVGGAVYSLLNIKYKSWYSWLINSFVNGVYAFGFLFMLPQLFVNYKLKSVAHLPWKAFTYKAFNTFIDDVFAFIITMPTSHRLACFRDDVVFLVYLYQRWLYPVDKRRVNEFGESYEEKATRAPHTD

Legend:
Experiment in all cases: log2 fold change, soluble protein after heating vs DMSO (PISA); higher = thermal stabilisation; K562 lysate, 10 uM; active = over 0.2 and 3.5 SD of the protein, either way, in both replicates (recomputed)
vemurafenib = compound: CCCS(=O)(=O)Nc1ccc(F)c(C(=O)c2c[nH]c3ncc(-c4ccc(Cl)cc4)cc23)c1F [vemurafenib]
How it was run: (§1)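 K562 pellets were dounce-homogenised in PBS pH 7.4 with 1 mM MgCl2, and the crude extract at 1 mg/mL protein was treated with 10 μM compound for 30 min. Aliquots were heated for 3 min across 48°C-58°C, pooled, and brought to 0.5% NP-40 at 4°C; soluble protein was the supernatant after 21,000xg for 90 min. Soluble protein was quantified by TMTpro 16plex LC-MS/MS with channel sums equalised, and reported as log2 fold change in thermal stability against DMSO controls, with values from duplicates.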

[1] = compound: CCCS(=O)(=O)Nc1ccc(F)c(C(=O)c2c[nH]c3ncc(Cl)cc23)c1F
How it was run: as §1

barasertib = compound: CCN(CCCOc1ccc2c(Nc3cc(CC(=O)Nc4cccc(F)c4)[nH]n3)ncnc2c1)CCOP(=O)(O)O [barasertib]
How it was run: as §1

[2] = compound: CC[C@@H]1C(=O)N(C)c2cnc(Nc3ccc(C(=O)NC4CCN(C)CC4)cc3OC)nc2N1C1CCCC1
How it was run: as §1

volasertib = compound: CC[C@@H]1C(=O)N(C)c2cnc(Nc3ccc(C(=O)N[C@H]4CC[C@H](N5CCN(CC6CC6)CC5)CC4)cc3OC)nc2N1C(C)C [volasertib]
How it was run: as §1

[3] = compound: CCn1c(C(=O)N(C2CC2)C2CC2)cc2c3c(ncn3C)c(Nc3cc(C)n(C)n3)nc21
How it was run: as §1

[4] = compound: CCn1cc(-c2ccnc3[nH]c(-c4cccc(CN(C)C)c4)cc23)c(-c2ccc(NC(=O)N(C)C)cc2)n1
How it was run: as §1

[5] = compound: CN1CCC(CNc2ccc3ncc(-c4cccc(OC(F)(F)F)c4)n3n2)CC1
How it was run: as §1

saracatinib = compound: CN1CCN(CCOc2cc(OC3CCOCC3)c3c(Nc4c(Cl)ccc5c4OCO5)ncnc3c2)CC1 [saracatinib]
How it was run: as §1

sotrastaurin = compound: CN1CCN(c2nc(C3=C(c4c[nH]c5ccccc45)C(=O)NC3=O)c3ccccc3n2)CC1 [sotrastaurin]
How it was run: as §1

alvocidib = compound: CN1CC[C@H](c2c(O)cc(O)c3c(=O)cc(-c4ccccc4Cl)oc23)[C@H](O)C1 [alvocidib]
How it was run: as §1

Tubastatin A = compound: CN1CCc2c(c3ccccc3n2Cc2ccc(C(=O)NO)cc2)C1 [Tubastatin A]
How it was run: as §1

[6] = compound: CNC(=O)C1=CC=CC=C1NC2=NC(=NC=C2Cl)NC3=C(C=C(C=C3)N4CCOCC4)OC
How it was run: as §1

defactinib = compound: CNC(=O)c1ccc(Nc2ncc(C(F)(F)F)c(NCc3nccnc3N(C)S(C)(=O)=O)n2)cc1 [defactinib]
How it was run: as §1

[7] = compound: CNc1nc(-c2ccc3c(N)n[nH]c3c2)cc(N2C[C@@H](C(=O)NC3CCCCC3)CC[C@H]2C)n1
How it was run: as §1

encorafenib = compound: COC(=O)N[C@@H](C)CNc1nccc(-c2cn(C(C)C)nc2-c2cc(Cl)cc(NS(C)(=O)=O)c2F)n1 [encorafenib]
How it was run: as §1

[8] = compound: COC(=O)[C@H](CCSC)NC(=O)C1=C(C=C(C=C1)NC[C@H](CS)N)C2=CC=CC=C2
How it was run: as §1

alisertib = compound: COc1cc(Nc2ncc3c(n2)-c2ccc(Cl)cc2C(c2c(F)cccc2OC)=NC3)ccc1C(=O)O [alisertib]
How it was run: as §1

[9] = compound: COc1cc2nc(-c3cc(F)ccc3O)nc(N[C@@H]3CNC[C@H]3C(C)(C)O)c2cc1OC
How it was run: as §1

gefitinib = compound: COc1cc2ncnc(Nc3ccc(F)c(Cl)c3)c2cc1OCCCN1CCOCC1 [gefitinib]
How it was run: as §1

Measured: log2 fold change

CHMP1B (UniProt Q7LBR1)
inactive: vemurafenib -0.02 | [1] -0.027 | barasertib 0.002 | [2] -0.002 | volasertib 0.029 | [3] -0.015 | [4] 0.039 | [5] -0.067 | saracatinib -0.036 | sotrastaurin 0.003 | alvocidib -0.014 | Tubastatin A 0.016 | [6] -0.023 | defactinib 0.002 | [7] -0.003 | encorafenib 0 | [8] -0.022 | alisertib 0.07 | [9] 0.049 | gefitinib 0.064

CLCN7 (UniProt P51798)
inactive: vemurafenib 0.026 | [1] 0.007 | barasertib 0.03 | [2] 0.007 | volasertib -0.015 | [3] 0.032 | [4] -0.029 | [5] 0.02 | saracatinib 0.008 | sotrastaurin 0.071 | alvocidib -0.032 | Tubastatin A 0.03 | [6] -0.038 | defactinib -0.006 | [7] -0.086 | encorafenib 0.019 | [8] -0.022 | alisertib -0.04 | [9] 0 | gefitinib -0.046

CLCN3 isoform 2 (UniProt P51790)
inactive: vemurafenib -0.015 | [1] 0.052 | barasertib -0.004 | [2] 0.003 | volasertib -0.022 | [3] -0.024 | [4] -0.039 | [5] 0.013 | saracatinib -0.018 | sotrastaurin 0.054 | alvocidib -0.02 | Tubastatin A 0.02 | [6] 0.024 | defactinib -0.015 | [7] 0.033 | encorafenib 0.041 | [8] 0.022 | alisertib -0.007 | [9] -0.002 | gefitinib 0.005

CHEK1 (UniProt O14757)
inactive: vemurafenib -0.02 | [1] 0.006 | barasertib 0.015 | [2] -0.031 | volasertib -0.012 | [3] -0.012 | [4] -0.008 | [5] -0.045 | saracatinib -0.004 | sotrastaurin -0.014 | alvocidib 0.01 | Tubastatin A 0.072 | [6] -0.063 | defactinib -0.021 | [7] -0.002 | encorafenib 0.002 | [8] -0.008 | alisertib 0.008 | [9] -0.178 | gefitinib 0.013

CIAPIN1 (UniProt Q6FI81)
inactive: vemurafenib -0.003 | [1] 0 | barasertib -0.02 | [2] 0.037 | volasertib 0.016 | [3] -0.016 | [4] -0.064 | [5] 0.039 | saracatinib 0.011 | sotrastaurin 0.009 | alvocidib 0.012 | Tubastatin A 0.038 | [6] 0.007 | defactinib -0.022 | [7] 0.019 | encorafenib 0 | [8] -0.022 | alisertib -0.009 | [9] 0.009 | gefitinib -0.026

CLNS1A (UniProt P54105)
inactive: vemurafenib 0.005 | [1] 0.022 | barasertib -0.046 | [2] 0.058 | volasertib 0.019 | [3] -0.044 | [4] -0.016 | [5] 0.043 | saracatinib -0.026 | sotrastaurin 0.018 | alvocidib -0.002 | Tubastatin A 0.01 | [6] 0.033 | defactinib 0.013 | [7] 0.041 | encorafenib -0.001 | [8] -0.064 | alisertib -0.024 | [9] -0.003 | gefitinib -0.035

CHD2 (UniProt O14647)
inactive: vemurafenib 0.185 | [1] 0.107 | barasertib 0.12 | [2] -0.09 | volasertib -0.113 | [3] 0.031 | [4] -0.129 | [5] 0.055 | saracatinib -0.029 | sotrastaurin 0.017 | alvocidib -0.029 | Tubastatin A -0.079 | defactinib 0.128 | [7] -0.171 | encorafenib 0.07 | [8] 0.081 | alisertib 0.009 | [9] -0.03 | gefitinib -0.021

CLTB isoform 2 (UniProt P09497)
inactive: vemurafenib -0.036 | [1] -0.001 | barasertib 0.093 | [2] 0.025 | volasertib 0.001 | [3] -0.046 | [4] 0.047 | [5] 0.015 | saracatinib 0.027 | sotrastaurin -0.016 | alvocidib -0.002 | Tubastatin A 0.05 | [6] -0.001 | defactinib 0.008 | [7] 0.028 | encorafenib -0.021 | [8] -0.011 | alisertib -0.023 | [9] 0.017 | gefitinib -0.008

CHCHD2 (UniProt Q9Y6H1)
inactive: vemurafenib 0.076 | [1] -0.025 | barasertib 0.011 | [2] 0.102 | volasertib 0.086 | [3] 0.108 | [4] 0.16 | [5] -0.094 | saracatinib -0.011 | sotrastaurin 0.054 | alvocidib -0.061 | Tubastatin A 0.031 | [6] -0.003 | defactinib -0.079 | [7] -0.024 | encorafenib -0.044 | [8] -0.126 | alisertib -0.051 | [9] -0.033 | gefitinib 0.28

CHAMP1 (UniProt Q96JM3)
inactive: vemurafenib 0.051 | [1] -0.019 | barasertib -0.004 | [2] 0.053 | volasertib -0.02 | [3] -0.005 | [4] 0.05 | [5] -0.006 | saracatinib 0.009 | sotrastaurin -0.009 | alvocidib -0.002 | Tubastatin A -0.012 | [6] 0.037 | defactinib 0.049 | [7] -0.009 | encorafenib 0.006 | [8] 0.013 | alisertib -0.035 | [9] -0.047 | gefitinib -0.04

CIRBP (UniProt Q14011)
inactive: vemurafenib -0.022 | [1] 0.001 | barasertib -0.017 | [2] 0.007 | volasertib 0.028 | [3] -0.003 | [4] -0.008 | [5] -0.003 | saracatinib -0.032 | sotrastaurin 0 | alvocidib 0.003 | Tubastatin A 0.023 | [6] -0.02 | defactinib 0.014 | [7] 0.03 | encorafenib 0.019 | [8] -0.068 | alisertib -0.008 | [9] 0 | gefitinib -0.019

CMC1 (UniProt Q7Z7K0)
inactive: vemurafenib -0.037 | [1] 0.008 | barasertib -0.045 | [2] 0.045 | volasertib 0.023 | [3] 0.036 | [4] -0.008 | [5] 0.042 | saracatinib 0.096 | sotrastaurin 0.078 | alvocidib -0.093 | Tubastatin A 0.047 | [6] 0.031 | defactinib -0.07 | [7] -0.041 | encorafenib 0.018 | [8] -0.042 | alisertib -0.022 | [9] 0 | gefitinib 0.197

CHMP4B (UniProt Q9H444)
inactive: vemurafenib 0.046 | [1] 0.025 | barasertib -0.042 | [2] 0.047 | volasertib 0.028 | [3] 0.031 | [4] 0.043 | [5] -0.02 | saracatinib -0.021 | sotrastaurin -0.017 | alvocidib -0.02 | Tubastatin A 0.01 | [6] -0.01 | defactinib -0.081 | [7] -0.005 | encorafenib 0.006 | [8] -0.009 | alisertib -0.024 | [9] -0.022 | gefitinib 0.043

CHD1 (UniProt O14646)
inactive: vemurafenib -0.04 | [1] 0.01 | barasertib -0.006 | [2] -0.12 | volasertib -0.035 | [3] 0.061 | [4] 0.007 | [5] 0.04 | saracatinib -0.136 | sotrastaurin 0.059 | alvocidib 0.023 | Tubastatin A -0.017 | [6] 0.015 | defactinib 0.004 | [7] -0.044 | encorafenib 0.035 | [8] 0.204 | alisertib -0.032 | [9] 0.052 | gefitinib 0.039

2 records picked at random from those above:
CHEK1 (UniProt O14757)
inactive: vemurafenib -0.02 | [1] 0.006 | barasertib 0.015 | [2] -0.031 | volasertib -0.012 | [3] -0.012 | [4] -0.008 | [5] -0.045 | saracatinib -0.004 | sotrastaurin -0.014 | alvocidib 0.01 | Tubastatin A 0.072 | [6] -0.063 | defactinib -0.021 | [7] -0.002 | encorafenib 0.002 | [8] -0.008 | alisertib 0.008 | [9] -0.178 | gefitinib 0.013

CLCN7 (UniProt P51798)
inactive: vemurafenib 0.026 | [1] 0.007 | barasertib 0.03 | [2] 0.007 | volasertib -0.015 | [3] 0.032 | [4] -0.029 | [5] 0.02 | saracatinib 0.008 | sotrastaurin 0.071 | alvocidib -0.032 | Tubastatin A 0.03 | [6] -0.038 | defactinib -0.006 | [7] -0.086 | encorafenib 0.019 | [8] -0.022 | alisertib -0.04 | [9] 0 | gefitinib -0.046

Next part:

CLPTM1L (UniProt Q96KA5)
inactive: vemurafenib -0.006 | [1] 0.049 | barasertib 0.079 | [2] 0.067 | volasertib -0.043 | [3] 0.012 | [4] -0.099 | [5] 0.016 | saracatinib 0.049 | sotrastaurin -0.001 | alvocidib 0.001 | Tubastatin A -0.064 | [6] -0.131 | defactinib 0.015 | [7] -0.204 | encorafenib 0.021 | [8] -0.029 | alisertib 0.054 | [9] -0.097 | gefitinib 0.011

CIT isoform 4 (UniProt O14578)
inactive: vemurafenib -0.023 | [1] 0.003 | barasertib 0.026 | [2] 0.013 | volasertib -0.067 | [3] 0.005 | [4] 0.37 | [5] -0.025 | saracatinib 0.035 | sotrastaurin -0.008 | alvocidib -0.059 | Tubastatin A -0.044 | [6] 0.029 | defactinib 0.001 | [7] 0.064 | encorafenib 0.007 | [8] -0.065 | alisertib -0.011 | [9] 0.036 | gefitinib 0.063
